In publication PMC10235086:
No constants are given. Whether binding was seen depends on the method and setting. Binding seen in cells or lysates may run through a third protein. Here binding means that the protein was enriched with, or labelled near, the bait; the list need not be complete.

Amino acid sequences for entries named in this document (tags omitted).
UniProt P06701: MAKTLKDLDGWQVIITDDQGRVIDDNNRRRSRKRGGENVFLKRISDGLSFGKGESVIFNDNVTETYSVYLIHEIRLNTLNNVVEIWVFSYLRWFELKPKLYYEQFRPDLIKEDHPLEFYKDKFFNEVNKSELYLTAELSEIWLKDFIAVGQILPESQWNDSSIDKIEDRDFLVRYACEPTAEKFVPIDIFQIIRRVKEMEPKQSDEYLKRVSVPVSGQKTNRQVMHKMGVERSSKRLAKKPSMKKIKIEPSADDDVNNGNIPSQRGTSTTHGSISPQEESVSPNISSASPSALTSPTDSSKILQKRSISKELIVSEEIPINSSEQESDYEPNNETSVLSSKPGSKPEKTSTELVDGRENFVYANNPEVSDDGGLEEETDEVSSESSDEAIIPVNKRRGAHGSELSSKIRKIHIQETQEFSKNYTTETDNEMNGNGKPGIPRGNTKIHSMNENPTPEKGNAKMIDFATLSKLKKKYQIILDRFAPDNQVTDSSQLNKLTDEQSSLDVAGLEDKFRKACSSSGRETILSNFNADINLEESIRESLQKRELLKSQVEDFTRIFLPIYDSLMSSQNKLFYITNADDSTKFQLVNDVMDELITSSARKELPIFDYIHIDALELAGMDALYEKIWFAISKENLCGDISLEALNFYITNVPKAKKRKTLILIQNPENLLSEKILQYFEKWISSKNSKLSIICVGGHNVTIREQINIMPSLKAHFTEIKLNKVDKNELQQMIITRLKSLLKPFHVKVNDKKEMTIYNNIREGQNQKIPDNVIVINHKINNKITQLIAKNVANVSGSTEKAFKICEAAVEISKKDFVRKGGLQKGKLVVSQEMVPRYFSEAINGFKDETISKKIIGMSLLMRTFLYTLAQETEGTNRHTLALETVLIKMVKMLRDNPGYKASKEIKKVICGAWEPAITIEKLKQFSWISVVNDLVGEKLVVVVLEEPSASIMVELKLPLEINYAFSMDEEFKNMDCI
UniProt P47037: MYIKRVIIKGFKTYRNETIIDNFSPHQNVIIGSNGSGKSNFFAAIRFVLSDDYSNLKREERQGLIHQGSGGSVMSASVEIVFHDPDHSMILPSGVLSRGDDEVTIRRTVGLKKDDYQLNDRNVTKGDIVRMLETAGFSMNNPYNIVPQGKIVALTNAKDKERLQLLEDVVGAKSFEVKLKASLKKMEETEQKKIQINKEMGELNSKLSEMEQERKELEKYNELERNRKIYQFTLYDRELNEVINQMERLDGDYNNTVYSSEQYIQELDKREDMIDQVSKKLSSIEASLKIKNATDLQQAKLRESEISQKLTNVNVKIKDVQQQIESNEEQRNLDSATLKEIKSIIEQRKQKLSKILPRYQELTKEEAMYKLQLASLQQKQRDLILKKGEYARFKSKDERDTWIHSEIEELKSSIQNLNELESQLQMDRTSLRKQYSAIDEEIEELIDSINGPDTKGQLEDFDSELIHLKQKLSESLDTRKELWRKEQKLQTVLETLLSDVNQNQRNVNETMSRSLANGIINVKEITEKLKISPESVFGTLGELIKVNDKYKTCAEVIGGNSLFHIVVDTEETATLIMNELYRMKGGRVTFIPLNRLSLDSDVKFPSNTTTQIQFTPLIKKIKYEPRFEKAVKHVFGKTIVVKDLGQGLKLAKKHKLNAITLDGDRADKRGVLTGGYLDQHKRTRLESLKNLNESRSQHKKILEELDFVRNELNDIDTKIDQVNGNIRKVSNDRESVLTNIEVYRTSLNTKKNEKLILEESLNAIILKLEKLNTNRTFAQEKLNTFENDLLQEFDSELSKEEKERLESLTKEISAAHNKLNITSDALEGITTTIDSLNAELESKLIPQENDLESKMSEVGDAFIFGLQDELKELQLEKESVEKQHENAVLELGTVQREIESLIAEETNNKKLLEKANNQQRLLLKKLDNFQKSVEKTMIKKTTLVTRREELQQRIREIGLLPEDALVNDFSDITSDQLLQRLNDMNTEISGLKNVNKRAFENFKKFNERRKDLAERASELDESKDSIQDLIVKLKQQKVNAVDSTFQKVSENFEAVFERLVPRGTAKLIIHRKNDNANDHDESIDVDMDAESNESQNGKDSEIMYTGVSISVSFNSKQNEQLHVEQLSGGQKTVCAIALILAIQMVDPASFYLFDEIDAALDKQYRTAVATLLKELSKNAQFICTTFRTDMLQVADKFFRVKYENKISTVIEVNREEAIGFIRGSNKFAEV
UniProt P06700: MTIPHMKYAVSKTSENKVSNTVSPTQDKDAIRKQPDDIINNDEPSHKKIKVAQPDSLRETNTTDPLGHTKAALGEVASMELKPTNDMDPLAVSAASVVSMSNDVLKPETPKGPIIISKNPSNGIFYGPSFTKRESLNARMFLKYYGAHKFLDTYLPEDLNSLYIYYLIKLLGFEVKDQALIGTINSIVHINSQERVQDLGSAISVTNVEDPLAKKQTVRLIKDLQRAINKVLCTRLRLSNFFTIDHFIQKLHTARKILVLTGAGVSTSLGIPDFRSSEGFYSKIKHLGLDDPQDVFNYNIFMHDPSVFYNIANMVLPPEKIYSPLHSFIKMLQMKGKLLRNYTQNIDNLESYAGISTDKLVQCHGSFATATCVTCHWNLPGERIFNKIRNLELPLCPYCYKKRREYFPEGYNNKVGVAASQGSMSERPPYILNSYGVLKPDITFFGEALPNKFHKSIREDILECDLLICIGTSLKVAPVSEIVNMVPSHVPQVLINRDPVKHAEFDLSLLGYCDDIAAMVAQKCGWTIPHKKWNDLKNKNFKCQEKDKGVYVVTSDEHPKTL
UniProt P22579: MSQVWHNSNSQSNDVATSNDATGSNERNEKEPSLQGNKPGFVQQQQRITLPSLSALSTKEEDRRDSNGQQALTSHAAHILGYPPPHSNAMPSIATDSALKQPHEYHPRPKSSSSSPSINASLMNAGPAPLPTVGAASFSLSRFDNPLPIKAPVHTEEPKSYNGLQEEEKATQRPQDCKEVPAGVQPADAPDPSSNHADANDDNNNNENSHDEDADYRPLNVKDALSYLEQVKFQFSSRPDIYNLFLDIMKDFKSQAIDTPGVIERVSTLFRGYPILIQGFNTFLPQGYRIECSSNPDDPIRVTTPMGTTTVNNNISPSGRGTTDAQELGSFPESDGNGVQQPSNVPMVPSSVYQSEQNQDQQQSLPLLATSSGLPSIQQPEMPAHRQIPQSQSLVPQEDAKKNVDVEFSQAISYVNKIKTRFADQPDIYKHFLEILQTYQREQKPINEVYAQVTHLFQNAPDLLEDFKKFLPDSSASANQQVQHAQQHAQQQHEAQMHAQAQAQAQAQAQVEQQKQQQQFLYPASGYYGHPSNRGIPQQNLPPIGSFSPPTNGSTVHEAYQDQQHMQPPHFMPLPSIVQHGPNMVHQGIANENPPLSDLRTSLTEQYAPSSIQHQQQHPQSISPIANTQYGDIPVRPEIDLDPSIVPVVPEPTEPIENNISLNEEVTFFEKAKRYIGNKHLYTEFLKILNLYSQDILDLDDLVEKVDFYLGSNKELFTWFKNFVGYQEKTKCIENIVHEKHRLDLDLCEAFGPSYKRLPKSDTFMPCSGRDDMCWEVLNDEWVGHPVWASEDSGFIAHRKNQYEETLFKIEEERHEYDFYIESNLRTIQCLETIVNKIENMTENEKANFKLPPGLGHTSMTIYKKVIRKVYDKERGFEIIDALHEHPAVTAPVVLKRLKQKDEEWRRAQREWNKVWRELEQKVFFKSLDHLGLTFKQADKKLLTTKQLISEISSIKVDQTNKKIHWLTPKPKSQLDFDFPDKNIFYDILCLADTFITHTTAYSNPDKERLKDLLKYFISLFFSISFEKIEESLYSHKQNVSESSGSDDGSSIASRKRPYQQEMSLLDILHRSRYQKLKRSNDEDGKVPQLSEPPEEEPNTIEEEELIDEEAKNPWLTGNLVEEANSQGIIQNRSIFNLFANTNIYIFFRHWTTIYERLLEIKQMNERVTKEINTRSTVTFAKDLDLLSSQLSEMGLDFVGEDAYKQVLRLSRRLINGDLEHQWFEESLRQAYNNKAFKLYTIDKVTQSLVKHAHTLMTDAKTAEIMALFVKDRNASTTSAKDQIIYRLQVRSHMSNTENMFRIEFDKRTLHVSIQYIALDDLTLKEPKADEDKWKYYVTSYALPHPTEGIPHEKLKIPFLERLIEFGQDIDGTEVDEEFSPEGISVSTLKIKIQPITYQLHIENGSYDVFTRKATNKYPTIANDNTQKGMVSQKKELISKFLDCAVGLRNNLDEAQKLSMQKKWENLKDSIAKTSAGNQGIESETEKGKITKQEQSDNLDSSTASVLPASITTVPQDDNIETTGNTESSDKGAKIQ

T1: ProteinA-Rio1 (S. cerevisiae) (UniProt Q12196)
T1 sequence: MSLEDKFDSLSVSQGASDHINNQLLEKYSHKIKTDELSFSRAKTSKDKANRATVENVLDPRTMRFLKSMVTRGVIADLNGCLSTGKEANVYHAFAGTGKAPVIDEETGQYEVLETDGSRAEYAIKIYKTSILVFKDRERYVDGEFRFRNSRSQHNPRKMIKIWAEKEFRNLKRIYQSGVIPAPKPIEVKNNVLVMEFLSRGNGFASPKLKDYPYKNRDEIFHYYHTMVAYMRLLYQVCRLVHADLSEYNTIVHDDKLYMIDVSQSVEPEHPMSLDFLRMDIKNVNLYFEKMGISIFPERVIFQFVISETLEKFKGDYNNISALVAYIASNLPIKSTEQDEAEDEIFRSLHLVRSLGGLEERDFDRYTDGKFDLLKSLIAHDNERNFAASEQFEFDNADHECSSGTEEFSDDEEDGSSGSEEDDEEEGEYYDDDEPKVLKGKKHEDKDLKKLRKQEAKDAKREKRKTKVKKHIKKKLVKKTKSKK

B1: Spt6 (protein, UniProt P23615 1-1451)
chain: MEETGDSKLVPRDEEEIVNDNDETKAPSEEEEGEDVFDSSEEDEDIDEDEDEARKVQEGFIVNDDDENEDPGTSISKKRRKHKRREREEDDRLSEDDLDLLMENAGVERTKASSSSGKFKRLKRVGDEGNAAESESDNVAASRQDSTSKLEDFFSEDEEEEESGLRNGRNNEYGRDEEDHENRNRTADKGGILDELDDFIEDDEFSDEDDETRQRRIQEKKLLREQSIKQPTQITGLSSDKIDEMYDIFGDGHDYDWALEIENEELENGNDNNEAEEEEIDEETGAIKSTKKKISLQDIYDLEDLKKNLMTEGDMKIRKTDIPERYQELRAGITDYGNMSSEDQELERNWIAEKISVDKNFDANYDLTEFKEAIGNAIKFITKENLEVPFIYAYRRNYISSREKDGFLLTEDDLWDIVSLDIEFHSLVNKKDYVQRFYAELHIDDPIVTEYFKNQNTASIAELNSLQDIYDYLEFKYANEINEMFINHTGKTGKKHLKNSSYEKFKASPLYQAVSDIGISAEDVGENISSQHQIHPPVDHPSSKPVEVIESILNANSGDLQVFTSNTKLAIDTVQKYYSLELSKNTKIREKVRSDFSKYYLADVVLTAKGKKEIQKGSLYEDIKYAINRTPMHFRRDPDVFLKMVEAESLNLLSVKLHMSSQAQYIEHLFQIALETTNTSDIAIEWNNFRKLAFNQAMDKIFQDISQEVKDNLTKNCQKLVAKTVRHKFMTKLDQAPFIPNVRDPKIPKILSLTCGQGRFGADAIIAVYVNRKGDFIRDYKIVDNPFDKTNPEKFEDTLDNIIQSCQPNAIGINGPNPKTQKFYKRLQEVLHKKQIVDSRGHTIPIIYVEDEVAIRYQNSERAAQEFPNKPPLVKYCIALARYMHSPLLEYANLTSEEVRSLSIHPHQNLLSSEQLSWALETAFVDIVNLVSVEVNKATDNNYYASALKYISGFGKRKAIDFLQSLQRLNEPLLARQQLITHNILHKTIFMNSAGFLYISWNEKRQKYEDLEHDQLDSTRIHPEDYHLATKVAADALEYDPDTIAEKEEQGTMSEFIELLREDPDRRAKLESLNLESYAEELEKNTGLRKLNNLNTIVLELLDGFEELRNDFHPLQGDEIFQSLTGESEKTFFKGSIIPVRVERFWHNDIICTTNSEVECVVNAQRHAGAQLRRPANEIYEIGKTYPAKVIYIDYANITAEVSLLDHDVKQQYVPISYSKDPSIWDLKQELEDAEEERKLMMAEARAKRTHRVINHPYYFPFNGRQAEDYLRSKERGEFVIRQSSRGDDHLVITWKLDKDLFQHIDIQELEKENPLALGKVLIVDNQKYNDLDQIIVEYLQNKVRLLNEMTSSEKFKSGTKKDVVKFIEDYSRVNPNKSVYYFSLNHDNPGWFYLMFKINANSKLYTWNVKLTNTGYFLVNYNYPSVIQLCNGFKTLLKSNSSKNRMNNYR
B2: Hos4 (protein, UniProt P40480 1-1083)
chain: MNETTTKQPLKKRSLSSYLSNVSTRREELEKISKQETSEEEDTAGKHEQRETLSEEVSDKFPENVASFRSQTTSVHQATQNNLNAKESEDLAHKNDASSHEGEVNGDSRPDDVPETNEKISQAIRAKISSSSSSPNVRNVDIQNHQPFSRDQLRAMLKEPKRKTVDDFIEEEGLGAVEEEDLSDEVLEKNTTEPENVEKDIEYSDSDKDTDDVGSDDPTAPNSPIKLGRRKLVRGDQLDATTSSMFNNESDSELSDIDDSKNIALSSSLFRGGSSPVKETNNNLSNMNSSPAQNPKRGSVSRSNDSNKSSHIAVSKRPKQKKGIYRDSGGRTRLQIACDKGKYDVVKKMIEEGGYDINDQDNAGNTALHEAALQGHIEIVELLIENGADVNIKSIEMFGDTPLIDASANGHLDVVKYLLKNGADPTIRNAKGLTAFESVDDESEFDDEEDQKILREIKKRLSIAAKKWTNRAGIHNDKSKNGNNAHTIDQPPFDNTTKAKNEKAADSPSMASNIDEKAPEEEFYWTDVTSRAGKEKLFKASKEGHLPYVGTYVENGGKIDLRSFFESVKCGHEDITSIFLAFGFPVNQTSRDNKTSALMVAVGRGHLGTVKLLLEAGADPTKRDKKGRTALYYAKNSIMGITNSEEIQLIENAINNYLKKHSEDNNDDDDDDDNNNETYKHEKKREKTQSPILASRRSATPRIEDEEDDTRMLNLADDDFNNDRDVKESTTSDSRKRLDDNENVGTQYSLDWKKRKTNALQDEEKLKSISPLSMEPHSPKKAKSVEISKIHEETAAEREARLKEEEEYRKKRLEKKRKKEQELLQKLAEDEKKRIEEQEKQKVLEMERLEKATLEKARKMEREKEMEEISYRRAVRDLYPLGLKIINFNDKLDYKRFLPLYYFVDEKNDKFVLDLQVMILLKDIDLLSKDNQPTSEKIPVDPSHLTPLWNMLKFIFLYGGSYDDKKNNMENKRYVVNFDGVDLDTKIGYELLEYKKFVSLPMAWIKWDNVVIENHAKRKEIEGNMIQISINEFARWRNDKLNKAQQPTRKQRSLKIPRELPVKFQHRMSISSVLQQTSKEPFW
B3: Pat1 (protein, UniProt P25644 1-796)
chain: MSFFGLENSGNARDGPLDFEESYKGYGEHELEENDYLNDETFGDNVQVGTDFDFGNPHSSGSSGNAIGGNGVGATARSYVAATAEGISGPRTDGTAAAGPLDLKPMESLWSTAPPPAMAPSPQSTMAPAPAPQQMAPLQPILSMQDLERQQRQMQQQFMNFHAMGHPQGLPQGPPQQQFPMQPASGQPGPSQFAPPPPPPGVNVNMNQMPMGPVQVPVQASPSPIGMSNTPSPGPVVGATKMPLQSGRRSKRDLSPEEQRRLQIRHAKVEKILKYSGLMTPRDKDFITRYQLSQIVTEDPYNEDFYFQVYKIIQRGGITSESNKGLIARAYLEHSGHRLGGRYKRTDIALQRMQSQVEKAVTVAKERPSKLKDQQAAAGNSSQDNKQANTVLGKISSTLNSKNPRRQLQIPRQQPSDPDALKDVTDSLTNVDLASSGSSSTGSSAAAVASKQRRRSSYAFNNGNGATNLNKSGGKKFILELIETVYEEILDLEANLRNGQQTDSTAMWEALHIDDSSYDVNPFISMLSFDKGIKIMPRIFNFLDKQQKLKILQKIFNELSHLQIIILSSYKTTPKPTLTQLKKVDLFQMIILKIIVSFLSNNSNFIEIMGLLLQLIRNNNVSFLTTSKIGLNLITILISRAALIKQDSSRSNILSSPEISTWNEIYDKLFTSLESKIQLIFPPREYNDHIMRLQNDKFMDEAYIWQFLASLALSGKLNHQRIIIDEVRDEIFATINEAETLQKKEKELSVLPQRSQELDTELKSIIYNKEKLYQDLNLFLNVMGLVYRDGEISELK
B4: Rtt106 (protein, UniProt P40161 1-455)
chain: MSKLFLDELPESLSRKIGTVVRVLPSSLEIFEELYKYALNENSNDRSGRHKKPRIDVSSDLLKTDEISETNTIFKLEGVSVLSPLRKKLDLVFYLSNVDGSPVITLLKGNDRELSIYQLNKNIKMASFLPVPEKPNLIYLFMTYTSCEDNKFSEPVVMTLNKENTLNQFKNLGLLDSNVTDFEKCVEYIRKQAILTGFKISNPFVNSTLVDTDAEKINSFHLQCHRGTKEGTLYFLPDHIIFGFKKPILLFDASDIESITYSSITRLTFNASLVTKDGEKYEFSMIDQTEYAKIDDYVKRKQMKDKSMSEELKAKSKSKGQATDGTADQPSILQEATRQMQDEKKAGVFSDDDEENDQNFEAESDLSDGSGQESSDGAEDGEEAEEDDEEDDEEEDKKGQSALNRDNSFASINGQPEQELQYKEFKEPLELEDIPIEIDNDDDEDDEDGSGVEYD
B5: Ycg1 (protein, UniProt Q06680 1-1035)
chain: MQDPDGIDINTKIFNSVAEVFQKAQGSYAGHRKHIAVLKKIQSKAVEQGYEDAFNFWFDKLVTKILPLKKNEIIGDRIVKLVAAFIASLERELILAKKQNYKLTNDEEGIFSRFVDQFIRHVLRGVESPDKNVRFRVLQLLAVIMDNIGEIDESLFNLLILSLNKRIYDREPTVRIQAVFCLTKFQDEEQTEHLTELSDNEENFEATRTLVASIQNDPSAEVRRAAMLNLINDNNTRPYILERARDVNIVNRRLVYSRILKSMGRKCFDDIEPHIFDQLIEWGLEDRELSVRNACKRLIAHDWLNALDGDLIELLEKLDVSRSSVCVKAIEALFQSRPDILSKIKFPESIWKDFTVEIAFLFRAIYLYCLDNNITEMLEENFPEASKLSEHLNHYILLRYHHNDISNDSQSHFDYNTLEFIIEQLSIAAERYDYSDEVGRRSMLTVVRNMLALTTLSEPLIKIGIRVMKSLSINEKDFVTMAIEIINDIRDDDIEKQEQEEKIKSKKINRRNETSVDEEDENGTHNDEVNEDEEDDNISSFHSAVENLVQGNGNVSESDIINNLPPEKEASSATIVLCLTRSSYMLELVNTPLTENILIASLMDTLITPAVRNTAPNIRELGVKNLGLCCLLDVKLAIDNMYILGMCVSKGNASLKYIALQVIVDIFSVHGNTVVDGEGKVDSISLHKIFYKVLKNNGLPECQVIAAEGLCKLFLADVFTDDDLFETLVLSYFSPINSSNEALVQAFAFCIPVYCFSHPAHQQRMSRTAADILLRLCVLWDDLQSSVIPEVDREAMLKPNIIFQQLLFWTDPRNLVNQTGSTKKDTVQLTFLIDVLKIYAQIEKKEIKKMIITNINAIFLSSEQDYSTLKELLEYSDDIAENDNLDNVSKNALDKLRNNLNSLIEEINERSETQTKDENNTANDQYSSILGNSFNKSSNDTIEHAADITDGNNTELTKTTVNISAVDNTTEQSNSRKRTRSEAEQIDTSKNLENMSIQDTSTVAKNVSFVLPDEKSDAMSIDEEDKDSESFSEVC

The molecules below were run against T1, ProteinA-Rio1 (S. cerevisiae) (assay: affinity purification with mass spectrometry; ProteinA-Rio1 expressed from PGAL1-10 (2% galactose, 2 h) in pep4∆ yeast; cleared lysate (50 mM Tris-Cl pH 7.5, 10% glycerol, 150 mM NaCl, 1 mM DTT, 0.4% NP-40) on rabbit IgG agarose beads overnight at 4 °C; washed with PBS-T; on-bead digestion …; untagged Rio1 as negative control; three independent purifications).

| binding | Molecule |
| --- | --- |
| binds | B1 |
| binds | B2 |
| binds | B3 |
| binds | B4 |
| binds | B5 |

Molecular target: T1, ProteinA-Rio1 (S. cerevisiae)
Assay: as above
Remark: another data set of the same source

| binding | Molecule |
| --- | --- |
| binds | Sir3 (from UniProt P06701 1-978) |
| binds | Smc3 (from UniProt P47037 1-1230) |
| binds | Sir2 (from UniProt P06700 1-562) (enzyme) |
| binds | Sin3 (from UniProt P22579 1-1536) |
